{"source": "PubChem BioAssay AID1259425 (University of Nebraska Medical Center, 2018)", "screen": "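Seek colon cancer weak points whose silencing resembles KSR1 loss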 (primary screen)", "system": "HCT116 human colon cancer cells", "knock-down reagent": "siRNA pool against human genes, 50 nM siRNA", "measured": "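mRNA of six signature genes measured together by branched-DNA assay after 50 nM siRNA pool, blank removed, divided by geometric mean of two housekeeping genes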", "direction": "BNIP3L mRNA: higher = more BNIP3L transcript after knockdown; NDRG1 mRNA: higher = more NDRG1 transcript after knockdown", "note": "This is a random part of about 14,000 deposited reagents. Further read-outs or replicates are left out here. Not stated in the record: the time to read-out."}
{"target": "CSRNP1", "BNIP3L mRNA, set 1": 0.108, "NDRG1 mRNA, set 1": 0.202}
{"target": "SEH1L", "BNIP3L mRNA, set 1": 0.113, "NDRG1 mRNA, set 1": 0.21}
{"target": "BCL6B", "BNIP3L mRNA, set 1": 0.138, "NDRG1 mRNA, set 1": 0.136}
{"target": "CRMP1", "BNIP3L mRNA, set 1": 0.138, "NDRG1 mRNA, set 1": 0.174}
{"target": "DOLPP1", "BNIP3L mRNA, set 1": 0.142, "NDRG1 mRNA, set 1": 0.499}
{"target": "RBFOX2", "BNIP3L mRNA, set 1": 0.284, "NDRG1 mRNA, set 1": 0.415}
{"target": "MEOX2", "BNIP3L mRNA, set 1": 0.11, "NDRG1 mRNA, set 1": 0.191}
{"target": "FGF20", "BNIP3L mRNA, set 1": 0.0567, "NDRG1 mRNA, set 1": 0.103}
{"target": "FZD3", "BNIP3L mRNA, set 1": 0.181, "NDRG1 mRNA, set 1": 0.223}
{"target": "MSX1", "BNIP3L mRNA, set 1": 0.0995, "NDRG1 mRNA, set 1": 0.25}
{"target": "MLXIP", "BNIP3L mRNA, set 1": 0.0579, "NDRG1 mRNA, set 1": 0.0812}
{"target": "MX1", "BNIP3L mRNA, set 1": 0.13, "NDRG1 mRNA, set 1": 0.146}
{"target": "RELA", "BNIP3L mRNA, set 1": 0.0899, "NDRG1 mRNA, set 1": 0.225}
{"target": "FHOD1", "BNIP3L mRNA, set 1": 0.0846, "NDRG1 mRNA, set 1": 0.187}
{"target": "HMGN4", "BNIP3L mRNA, set 1": 0.0483, "NDRG1 mRNA, set 1": 0.0955}
{"target": "CPNE1", "BNIP3L mRNA, set 1": 0.14, "NDRG1 mRNA, set 1": 0.14}
{"target": "C11orf16", "BNIP3L mRNA, set 1": 0.105, "NDRG1 mRNA, set 1": 0.288}
{"target": "EPB41L4A", "BNIP3L mRNA, set 1": 0.125, "NDRG1 mRNA, set 1": 0.237}
{"target": "IL13RA1", "BNIP3L mRNA, set 1": 0.0864, "NDRG1 mRNA, set 1": 0.17}
{"target": "NCS1", "BNIP3L mRNA, set 1": 0.171, "NDRG1 mRNA, set 1": 0.305}
{"target": "UCKL1", "BNIP3L mRNA, set 1": 0.198, "NDRG1 mRNA, set 1": 0.238}
{"target": "SP4", "BNIP3L mRNA, set 1": 0.13, "NDRG1 mRNA, set 1": 0.274}
{"target": "KLHL12", "BNIP3L mRNA, set 1": 0.0847, "NDRG1 mRNA, set 1": 0.0856}
{"target": "SOCS2", "BNIP3L mRNA, set 1": 0.182, "NDRG1 mRNA, set 1": 0.193}
{"target": "DAZ4", "BNIP3L mRNA, set 1": 0.0922, "NDRG1 mRNA, set 1": 0.128}
{"target": "PHKG1", "BNIP3L mRNA, set 1": 0.0722, "NDRG1 mRNA, set 1": 0.393}
{"target": "DAB1", "BNIP3L mRNA, set 1": 0.103, "NDRG1 mRNA, set 1": 0.133}
{"target": "DPP6", "BNIP3L mRNA, set 1": 0.169, "NDRG1 mRNA, set 1": 0.248}
{"target": "MGC13053 (retired record)", "BNIP3L mRNA, set 1": 0.0885, "NDRG1 mRNA, set 1": 0.263}
{"target": "EDRF1", "BNIP3L mRNA, set 1": 0.153, "NDRG1 mRNA, set 1": 0.179}
{"target": "CGA", "BNIP3L mRNA, set 1": 0.128, "NDRG1 mRNA, set 1": 0.235}
{"target": "TXLNGY", "BNIP3L mRNA, set 1": 0.122, "NDRG1 mRNA, set 1": 0.138}
{"target": "CDK5R2", "BNIP3L mRNA, set 1": 0.111, "NDRG1 mRNA, set 1": 0.103}
{"target": "LSM2", "BNIP3L mRNA, set 1": 0.167, "NDRG1 mRNA, set 1": 0.405}
{"target": "IGFBP7", "BNIP3L mRNA, set 1": 0.148, "NDRG1 mRNA, set 1": 0.0868}
{"target": "AKAP17A", "BNIP3L mRNA, set 1": 0.148, "NDRG1 mRNA, set 1": 0.851}

A run of entries taken from the entries so far, as a working copy:
{"target": "DAZ4", "BNIP3L mRNA, set 1": 0.0922, "NDRG1 mRNA, set 1": 0.128}
{"target": "PHKG1", "BNIP3L mRNA, set 1": 0.0722, "NDRG1 mRNA, set 1": 0.393}
{"target": "DAB1", "BNIP3L mRNA, set 1": 0.103, "NDRG1 mRNA, set 1": 0.133}
{"target": "DPP6", "BNIP3L mRNA, set 1": 0.169, "NDRG1 mRNA, set 1": 0.248}
{"target": "MGC13053 (retired record)", "BNIP3L mRNA, set 1": 0.0885, "NDRG1 mRNA, set 1": 0.263}
{"target": "EDRF1", "BNIP3L mRNA, set 1": 0.153, "NDRG1 mRNA, set 1": 0.179}
